In assay [1] the target is Lsm1–7 complex (S. pombe) (UniProt P87173). Briefly: SEC-MALS; 20.6 µM PatMC/Lsm1–7 or Lsm1–7 with stoichiometric U15 RNA; KW-804 column; both purified. In general terms: In gel filtration, larger molecules generally elute earlier.
Assay [2] has as its target PatMC/Lsm1–7 complex (S. pombe) (UniProt O42958). The assay is described as follows: condition: only preparative size exclusion in 400 mM NaCl, before concentration; SEC; preparative size exclusion chromatography (Superdex 200 16/60) of PatMC/Lsm1–7 in 400 mM NaCl, 20 mM HEPES 7.0, 1 mM DTT, without RNA, before concentration; both purified.

Chains of the proteins cited; added tags and fusions are not shown. Lines headed by an entry give the natural chain unless they say otherwise; changes in a name come on top.
UniProt P87173: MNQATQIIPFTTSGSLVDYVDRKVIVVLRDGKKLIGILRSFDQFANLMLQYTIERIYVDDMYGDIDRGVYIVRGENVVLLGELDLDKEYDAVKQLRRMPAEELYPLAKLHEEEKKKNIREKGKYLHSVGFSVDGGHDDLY
UniProt O42958: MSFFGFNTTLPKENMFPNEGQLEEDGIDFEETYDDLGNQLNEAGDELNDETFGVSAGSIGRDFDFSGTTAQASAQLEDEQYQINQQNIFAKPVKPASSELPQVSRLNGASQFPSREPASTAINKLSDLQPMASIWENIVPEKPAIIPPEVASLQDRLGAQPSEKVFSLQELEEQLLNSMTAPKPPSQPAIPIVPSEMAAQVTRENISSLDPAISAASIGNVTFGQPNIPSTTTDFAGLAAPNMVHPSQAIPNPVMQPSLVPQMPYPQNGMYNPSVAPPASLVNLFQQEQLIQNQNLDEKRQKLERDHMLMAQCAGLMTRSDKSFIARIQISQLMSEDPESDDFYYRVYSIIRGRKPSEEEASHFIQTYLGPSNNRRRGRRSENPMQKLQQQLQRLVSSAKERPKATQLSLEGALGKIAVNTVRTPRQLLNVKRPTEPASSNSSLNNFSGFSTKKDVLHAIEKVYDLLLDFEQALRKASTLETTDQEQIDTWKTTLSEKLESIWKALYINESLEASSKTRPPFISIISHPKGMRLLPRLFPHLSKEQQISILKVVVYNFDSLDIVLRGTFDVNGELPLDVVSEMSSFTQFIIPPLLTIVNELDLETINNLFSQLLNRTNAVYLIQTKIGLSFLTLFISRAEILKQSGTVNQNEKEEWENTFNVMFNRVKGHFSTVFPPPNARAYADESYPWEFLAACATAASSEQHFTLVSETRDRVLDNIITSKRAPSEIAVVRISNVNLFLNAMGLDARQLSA

No constants are given. Whether binding was seen depends on the method and setting.

“Lsm1–7 complex (from UniProt P87173 1-140; O94408 1-96; Q9Y7M4 1-93; O14352 1-121; O42978 1-80; Q9UUI1 1-75; O74499 1-113)”: the binding result in assay [1] is listed as “no binding (tested: 20.6 µM)”.

In the case of “PatMC/Lsm1–7 complex (from UniProt O42958 296-754; P87173 1-140; O94408 1-96; Q9Y7M4 1-93; O14352 1-121; O42978 1-80; Q9UUI1 1-75; O74499 1-113)”, the binding entry in assay [2] is listed as “no binding”.

(Values after PMC7491320.)
